From US20200148937A1, “INHIBITING HYDROCARBON HYDRATE AGGLOMERATION” (COMMONWEALTH SCIENTIFIC AND INDUSTRIAL RESEARCH ORGANISATION, priority 2017, published 2020) come the findings set out here.

A short description of data set [1]: Corrosion inhibition weight-loss measurement. The settings on record: 2M HCl with 500 ppm additive, open vials, immersion 120 h; blank 3.4% loss.
A short description of data set [2]: High pressure autoclave gas hydrate formation test. The following applies: 0.5 wt %; for conversion of water to hydrate (conversion ratio): watercut 30, 120 bar natural gas, 4° C. for 10 hrs, pure water 77.36%; for maximum relative torque (τrel,max): watercut 30, 600 rpm stirring, during hydrate formation, pure water 1.74; for subcooling of the temperature at hydrate formation / hydrate formation onset time: watercut 30, decane continuous phase, 120 bar natural gas, cooling 24→4° C. at 0.25 K/min, 600 rpm, average of 10 experiments; for subcooling of the temperature at hydrate formation: pure water 7.01 K; for hydrate formation onset time: pure water 33.42 min.

As for `Cc1c(C)c2c(c(C)c1O)CCC(C)(CCCC(C)CCCC(C)CCCC(C)C)O2` (racemic) [racemic alpha tocopherol], in data set [1], the “weight loss of carbon steel coupon” value is reported as 2.69 % loss.

Take `Cc1c(C)c2c(c(C)c1O)CC[C@@](C)(CCC[C@H](C)CCC[C@H](C)CCCC(C)C)O2` [(+) alpha-tocopherol]: the “weight loss of carbon steel coupon” value in data set [1] is recorded as 2.88 % loss.

For `CCCCCCCCCCCC[N+](C)(C)C.[Br-]` [DTAB, dodecyltrimethylammonium bromide, reference compound], in data set [2], the “conversion of water to hydrate (conversion ratio)” value was 73.79%, the “maximum relative torque (τrel,max)” value amounted to 1.32, the “subcooling of the temperature at hydrate formation” value is 5.9 K and the “hydrate formation onset time” value came out at 29.10 min.

Consider `Cc1c(C)c2c(c(C)c1OC(=O)CCC(=O)O)CCC(C)(CCCC(C)CCCC(C)CCCC(C)CCCC(C)C)O2` (stereo not shown) [tocopherol succinate], for which, in data set [2], the “conversion of water to hydrate (conversion ratio)” value is given as 73.35%, the “maximum relative torque (τrel,max)” value is 1.18, the “subcooling of the temperature at hydrate formation” value is reported as 8.19 K and the “hydrate formation onset time” value stood at 54.27 min.
